In patent publication US20030162221A1:
No constants are given. Whether binding was seen depends on the method and setting. Binding seen in cells or lysates may run through a third protein. Some binding calls cover weakened binding; strength is not graded here. For part of these data: Where a sequence is shown, tags or fusion partners need not be part of it.

The chains behind the UniProt entries cited, without tags or fusion partners. Residues count along the entry.
UniProt P52286, residues 2-194: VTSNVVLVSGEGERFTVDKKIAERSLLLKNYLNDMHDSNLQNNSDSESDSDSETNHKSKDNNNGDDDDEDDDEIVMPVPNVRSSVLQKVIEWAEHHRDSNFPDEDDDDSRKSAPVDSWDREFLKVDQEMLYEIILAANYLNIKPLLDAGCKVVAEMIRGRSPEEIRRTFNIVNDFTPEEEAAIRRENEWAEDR
UniProt P16892: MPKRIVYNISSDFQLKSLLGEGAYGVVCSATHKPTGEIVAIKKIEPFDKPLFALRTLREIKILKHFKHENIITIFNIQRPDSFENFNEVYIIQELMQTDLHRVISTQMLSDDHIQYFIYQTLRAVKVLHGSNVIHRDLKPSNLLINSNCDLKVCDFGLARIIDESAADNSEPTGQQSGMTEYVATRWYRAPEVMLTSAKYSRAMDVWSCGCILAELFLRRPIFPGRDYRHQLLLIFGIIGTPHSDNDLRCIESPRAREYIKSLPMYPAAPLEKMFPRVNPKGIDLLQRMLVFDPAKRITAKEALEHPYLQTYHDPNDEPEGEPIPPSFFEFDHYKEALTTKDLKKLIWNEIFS

Key:
[1] = target: T1, Cdc53 (Saccharomyces cerevisiae) (UniProt Q12018); experiment: anti-FLAG co-IP, LC-MS/MS
T1 sequence (looked up): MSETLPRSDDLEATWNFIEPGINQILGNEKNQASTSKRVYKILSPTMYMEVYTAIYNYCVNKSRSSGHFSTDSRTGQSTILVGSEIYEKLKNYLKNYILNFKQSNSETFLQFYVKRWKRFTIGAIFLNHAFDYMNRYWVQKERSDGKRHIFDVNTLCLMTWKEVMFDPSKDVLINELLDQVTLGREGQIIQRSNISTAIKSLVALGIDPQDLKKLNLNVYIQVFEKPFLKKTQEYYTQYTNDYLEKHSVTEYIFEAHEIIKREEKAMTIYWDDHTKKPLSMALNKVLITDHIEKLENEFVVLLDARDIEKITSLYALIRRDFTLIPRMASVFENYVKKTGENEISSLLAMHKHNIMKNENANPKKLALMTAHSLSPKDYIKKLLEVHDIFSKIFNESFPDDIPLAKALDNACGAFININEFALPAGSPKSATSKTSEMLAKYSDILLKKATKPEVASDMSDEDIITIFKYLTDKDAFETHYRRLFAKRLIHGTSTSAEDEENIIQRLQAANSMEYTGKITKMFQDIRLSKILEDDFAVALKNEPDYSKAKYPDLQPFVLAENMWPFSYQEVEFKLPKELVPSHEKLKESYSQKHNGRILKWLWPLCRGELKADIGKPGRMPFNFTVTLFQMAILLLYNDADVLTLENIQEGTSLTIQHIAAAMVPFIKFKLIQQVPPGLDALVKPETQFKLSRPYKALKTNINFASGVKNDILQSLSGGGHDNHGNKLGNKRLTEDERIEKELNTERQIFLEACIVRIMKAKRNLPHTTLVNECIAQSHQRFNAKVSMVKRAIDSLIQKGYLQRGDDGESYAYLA

[2] = target: T2, Hrt1 (Saccharomyces cerevisiae) (UniProt Q08273); experiment: anti-FLAG co-IP, LC-MS/MS
T2 sequence (looked up): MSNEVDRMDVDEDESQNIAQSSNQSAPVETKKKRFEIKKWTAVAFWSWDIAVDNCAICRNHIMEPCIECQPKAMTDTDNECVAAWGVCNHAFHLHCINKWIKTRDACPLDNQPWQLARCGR

[3] = target: T3, Met31 (Saccharomyces cerevisiae) (UniProt Q03081); experiment: anti-FLAG co-IP, LC-MS/MS
T3 sequence (looked up): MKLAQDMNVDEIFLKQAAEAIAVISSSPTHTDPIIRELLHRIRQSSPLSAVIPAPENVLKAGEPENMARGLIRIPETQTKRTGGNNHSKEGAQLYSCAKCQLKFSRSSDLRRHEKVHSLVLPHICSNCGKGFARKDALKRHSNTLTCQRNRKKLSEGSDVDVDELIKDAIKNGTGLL

[4] = target: T4, Met4 (Saccharomyces cerevisiae) (UniProt P32389); experiment: anti-FLAG co-IP, LC-MS/MS
T4 sequence (looked up): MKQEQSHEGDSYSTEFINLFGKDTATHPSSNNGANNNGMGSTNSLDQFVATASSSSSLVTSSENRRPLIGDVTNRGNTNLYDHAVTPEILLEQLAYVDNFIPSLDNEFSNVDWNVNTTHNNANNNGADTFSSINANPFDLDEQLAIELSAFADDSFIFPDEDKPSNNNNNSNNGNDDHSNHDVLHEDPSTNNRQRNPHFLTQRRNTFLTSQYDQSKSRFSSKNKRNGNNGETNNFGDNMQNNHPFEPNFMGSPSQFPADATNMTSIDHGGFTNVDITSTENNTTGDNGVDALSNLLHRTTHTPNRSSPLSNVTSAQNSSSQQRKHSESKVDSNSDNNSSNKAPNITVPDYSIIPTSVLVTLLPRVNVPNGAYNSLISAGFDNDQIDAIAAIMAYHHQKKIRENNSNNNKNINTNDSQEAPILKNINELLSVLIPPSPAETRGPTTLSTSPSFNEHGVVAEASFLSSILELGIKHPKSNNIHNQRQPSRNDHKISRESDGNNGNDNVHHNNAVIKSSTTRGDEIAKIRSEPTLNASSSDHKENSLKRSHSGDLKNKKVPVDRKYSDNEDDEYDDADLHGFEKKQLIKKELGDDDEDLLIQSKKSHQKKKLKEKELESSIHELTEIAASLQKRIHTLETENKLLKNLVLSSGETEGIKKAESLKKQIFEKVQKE

[5] = target: T5, Rub1 (Saccharomyces cerevisiae) (UniProt Q03919); experiment: anti-FLAG co-IP, LC-MS/MS
T5 sequence (looked up): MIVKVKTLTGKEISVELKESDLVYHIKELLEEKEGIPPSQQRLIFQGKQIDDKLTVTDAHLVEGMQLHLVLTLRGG

[6] = target: Skp1 (Saccharomyces cerevisiae) (UniProt P52286); experiment: anti-FLAG co-IP, LC-MS/MS
[7] = target: T1, Cdc53 (Saccharomyces cerevisiae); experiment: anti-FLAG co-IP, LC-MS/MS; bait Met30 by Table 2
[8] = target: T2, Hrt1 (Saccharomyces cerevisiae); experiment: anti-FLAG co-IP, LC-MS/MS; bait Met30 by Table 2
[9] = target: T3, Met31 (Saccharomyces cerevisiae); experiment: anti-FLAG co-IP, LC-MS/MS; bait Met30 by Table 2
[10] = target: T4, Met4 (Saccharomyces cerevisiae); experiment: anti-FLAG co-IP, LC-MS/MS; bait Met30 by Table 2
[11] = target: T5, Rub1 (Saccharomyces cerevisiae); experiment: anti-FLAG co-IP, LC-MS/MS; bait Met30 by Table 2
[12] = target: Skp1 (Saccharomyces cerevisiae) (UniProt P52286); experiment: anti-FLAG co-IP, LC-MS/MS; bait Met30 by Table 2
[13] = target: Fus3 (Saccharomyces cerevisiae) (UniProt P16892); experiment: anti-FLAG co-IP, LC-MS/MS
[14] = target: T6, Kss1 (Saccharomyces cerevisiae) (UniProt P14681); experiment: anti-FLAG co-IP, LC-MS/MS
T6 sequence (looked up): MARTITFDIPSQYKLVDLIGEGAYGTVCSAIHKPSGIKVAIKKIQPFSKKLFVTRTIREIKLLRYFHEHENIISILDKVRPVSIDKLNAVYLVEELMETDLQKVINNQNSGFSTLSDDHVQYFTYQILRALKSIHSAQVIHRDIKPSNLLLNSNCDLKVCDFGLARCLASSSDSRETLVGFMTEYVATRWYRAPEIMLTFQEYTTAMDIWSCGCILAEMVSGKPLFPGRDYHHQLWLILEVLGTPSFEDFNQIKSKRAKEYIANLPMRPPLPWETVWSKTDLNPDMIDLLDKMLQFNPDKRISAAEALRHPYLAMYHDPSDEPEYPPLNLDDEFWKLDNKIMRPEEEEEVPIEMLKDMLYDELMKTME

[15] = target: T7, Slt2 (Saccharomyces cerevisiae) (UniProt Q00772); experiment: anti-FLAG co-IP, LC-MS/MS
T7 sequence (looked up): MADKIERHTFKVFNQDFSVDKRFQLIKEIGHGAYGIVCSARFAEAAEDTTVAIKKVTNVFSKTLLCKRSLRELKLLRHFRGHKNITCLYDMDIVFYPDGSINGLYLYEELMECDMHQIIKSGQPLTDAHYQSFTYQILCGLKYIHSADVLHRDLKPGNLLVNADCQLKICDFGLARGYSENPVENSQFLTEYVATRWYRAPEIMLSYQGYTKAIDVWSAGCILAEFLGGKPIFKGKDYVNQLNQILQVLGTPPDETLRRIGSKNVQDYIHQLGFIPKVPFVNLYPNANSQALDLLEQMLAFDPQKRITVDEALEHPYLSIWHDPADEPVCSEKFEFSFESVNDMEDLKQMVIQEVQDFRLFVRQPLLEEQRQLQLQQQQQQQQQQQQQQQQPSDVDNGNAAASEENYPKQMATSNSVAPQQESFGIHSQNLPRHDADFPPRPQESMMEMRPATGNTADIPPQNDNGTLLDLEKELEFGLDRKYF

Measured: binding

B1: Met30 (protein, Saccharomyces cerevisiae, UniProt P39014 1-640, looked up)
chain: MRRERQRMMSFEDKDKDDLDNSNSNNSSEMTDTAMMPPLKRLLITGSSDDLAQGSSGKKKMTMATRSPSSSPDLATNDSGTRVQPLPEYNFTKFCYRHNPDIQFSPTHTACYKQDLKRTQEINANIAKLPLQEQSDIHHIISKYSNSNDKIRKLILDGILSTSCFPQLSYISSLVTHMIKIDFISILPQELSLKILSYLDCQSLCNATRVCRKWQKLADDDRVWYHMCEQHIDRKCPNCGWGLPLLHMKRARIQQNSTGSSSNADIQTQTTRPWKVIYRERFKVESNWRKGHCRIQEFKGHMDGVLTLQFNYRLLFTGSYDSTIGIWDLFTGKLIRRLSGHSDGVKTLYFDDRKLITGSLDKTIRVWNYITGECISTYRGHSDSVLSVDSYQKVIVSGSADKTVKVWHVESRTCYTLRGHTEWVNCVKLHPKSFSCFSCSDDTTIRMWDIRTNSCLKVFRGHVGQVQKIIPLTIKDVENLATDNTSDGSSPQDDPTMTDGADESDTPSNEQETVLDENIPYPTHLLSCGLDNTIKLWDVKTGKCIRTQFGHVEGVWDIAADNFRIISGSHDGSIKVWDLQSGKCMHTFNGRRLQRETQHTQTQSLGDKVAPIACVCIGDSECFSGDEFGCVKMYKFDLND
binds: [1] | [2] | [3] | [4] | [5] | [6] | [7] | [8] | [9] | [10] | [11] | [12]

B2: Msg5 (protein, Saccharomyces cerevisiae, UniProt P38590 1-489, looked up)
chain: MQFHSDKQHLDSKTDIDFKPNSPRSLQNRNTKNLSLDIAALHPLMEFSSPSQDVPGSVKFPSPTPLNLFMKPKPIVLEKCPPKVSPRPTPPSLSMRRSEASIYTLPTSLKNRTVSPSVYTKSSTVSSISKLSSSSPLSSFSEKPHLNRVHSLSVKTKDLKLKGIRGRSQTISGLETSTPISSTREGTLDSTDVNRFSNQKNMQTTLIFPEEDSDLNIDMVHAEIYQRTVYLDGPLLVLPPNLYLYSEPKLEDILSFDLVINVAKEIPNLEFLIPPEMAHKIKYYHIEWTHTSKIVKDLSRLTRIIHTAHSQGKKILVHCQCGVSRSASLIVAYIMRYYGLSLNDAYNKLKGVAKDISPNMGLIFQLMEWGTMLSKNSPGEEGETVHMPEEDDIGNNEVSSTTKSYSSASFRSFPMVTNLSSSPNDSSVNSSEVTPRTPATLTGARTALATERGEDDEHCKSLSQPADSLEASVDNESISTAPEQMMFLP
binds: [13] | [14] | [15]
